Results are given in words; binding and its absence hold for the method and conditions named. For part of these data: Where a sequence is shown, tags or fusion partners need not be part of it. One block for each binder: values may come before it.
What was measured:
[1] = molecular target: T1, GST fusion of CDPME kinase (IspE) from Bacillus subtilis (Bacillus subtilis 168) (UniProt P37550); test: SEC; Superdex75 10/300 GL; single B. subtilis proteins and triple mixture (0.2 mg each, 250 μl); 100 mM NaCl, 25 mM Tris/HCl pH 8.0; 1 mM MgCl2, 1 mM MEP, 1 mM CTP if IspD present; 30°C 30 min; both purified
T1 sequence: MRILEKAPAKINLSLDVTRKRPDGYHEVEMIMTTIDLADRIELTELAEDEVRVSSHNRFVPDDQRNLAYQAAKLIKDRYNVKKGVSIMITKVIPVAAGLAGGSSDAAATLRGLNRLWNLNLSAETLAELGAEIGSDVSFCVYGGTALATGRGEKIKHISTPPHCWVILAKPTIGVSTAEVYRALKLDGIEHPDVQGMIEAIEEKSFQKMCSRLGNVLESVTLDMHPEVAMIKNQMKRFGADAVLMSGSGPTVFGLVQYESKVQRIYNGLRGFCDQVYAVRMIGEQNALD

[2] = molecular target: T2, 2-C-Methyl-D-erythritol 2,4-cyclodiphosphate synthase (IspF) from Escherichia coli (Escherichia coli K12) (UniProt P62617); test: SEC; Superdex200 10/300 GL; single E. coli proteins and triple mixture (0.2 mg each, 250 μl); 100 mM NaCl, 25 mM Tris/HCl pH 8.0; 1 mM MgCl2, 1 mM MEP, 1 mM CTP if IspD present; 30°C 30 min; both purified
T2 sequence: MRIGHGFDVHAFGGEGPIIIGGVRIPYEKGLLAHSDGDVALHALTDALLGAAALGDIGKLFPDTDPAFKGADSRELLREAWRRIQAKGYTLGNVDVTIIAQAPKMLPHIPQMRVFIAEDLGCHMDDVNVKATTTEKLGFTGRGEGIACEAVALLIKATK

[3] = molecular target: T3, CDPME kinase (IspE) from Escherichia coli (Escherichia coli K12) (UniProt P62615); test: as above
T3 sequence: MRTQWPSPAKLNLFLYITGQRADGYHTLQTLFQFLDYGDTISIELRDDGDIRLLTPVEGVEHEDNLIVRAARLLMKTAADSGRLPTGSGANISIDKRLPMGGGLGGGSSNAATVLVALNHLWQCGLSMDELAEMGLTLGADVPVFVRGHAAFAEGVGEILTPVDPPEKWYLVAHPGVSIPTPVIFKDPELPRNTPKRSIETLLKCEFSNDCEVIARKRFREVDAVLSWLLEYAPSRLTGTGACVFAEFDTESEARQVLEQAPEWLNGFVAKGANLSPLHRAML

[4] = molecular target: T2, 2-C-Methyl-D-erythritol 2,4-cyclodiphosphate synthase (IspF) from Escherichia coli (Escherichia coli K12); test: native gel or EMSA; native gel shift of mixtures of two or three proteins, 2.5 μg/μl each, 10% glycerol, 25 mM Tris/HCl pH 8.0, 100 mM NaCl, 12 μl; 1 mM MgCl2, 1 mM MEP, 1 mM CTP if IspD present; 30°C 30 min; 8% native PAGE, 1x TBE, 4°C; both purified
[5] = molecular target: T3, CDPME kinase (IspE) from Escherichia coli (Escherichia coli K12); test: as above

binding [1]: no binding
B1: GST fusion of CDPME kinase (IspE) from Bacillus subtilis (enzyme, UniProt P37550 1-289)
chain: T1 sequence

binding [3]: no binding
binding [4]: no binding (tested: 2.5 μg/μl each)
B2: CDPME kinase (IspE) from Escherichia coli (enzyme, UniProt P62615 1-283)
chain: T3 sequence
binding [2]: no binding (tested: 0.2 mg each in 250 μl)

binding [5]: no binding (tested: 2.5 μg/μl each)
B3: 2-C-Methyl-D-erythritol-4-phosphate cytidyltransferase (IspD) from Escherichia coli (enzyme, UniProt Q46893 1-236)
chain: MATTHLDVCAVVPAAGFGRRMQTECPKQYLSIGNQTILEHSVHALLAHPRVKRVVIAISPGDSRFAQLPLANHPQITVVDGGDERADSVLAGLKAAGDAQWVLVHDAARPCLHQDDLARLLALSETSRTGGILAAPVRDTMKRAEPGKNAIAHTVDRNGLWHALTPQFFPRELLHDCLTRALNEGATITDEASALEYCGFHPQLVEGRADNIKVTRPEDLALAEFYLTRTIHQENT
binding [3]: no binding (tested: 0.2 mg each in 250 μl)

Reference: article PMC5821942, “Crystal structure of IspF from Bacillus subtilis and absence of protein complex assembly amongst IspD/IspE/IspF enzymes in the MEP pathway” (Bioscience Reports, 2018)
